Results are given in words; binding and its absence hold for the method and conditions named. For some of these results: Binding seen in cells or lysates may run through a third protein. Some binding calls cover weakened binding; strength is not graded here. For some of these results: Tags and fused reporters may be left off the sequences shown.
T1: Cdh1-ΔN200 (S. cerevisiae) (UniProt P53197)
T1 sequence: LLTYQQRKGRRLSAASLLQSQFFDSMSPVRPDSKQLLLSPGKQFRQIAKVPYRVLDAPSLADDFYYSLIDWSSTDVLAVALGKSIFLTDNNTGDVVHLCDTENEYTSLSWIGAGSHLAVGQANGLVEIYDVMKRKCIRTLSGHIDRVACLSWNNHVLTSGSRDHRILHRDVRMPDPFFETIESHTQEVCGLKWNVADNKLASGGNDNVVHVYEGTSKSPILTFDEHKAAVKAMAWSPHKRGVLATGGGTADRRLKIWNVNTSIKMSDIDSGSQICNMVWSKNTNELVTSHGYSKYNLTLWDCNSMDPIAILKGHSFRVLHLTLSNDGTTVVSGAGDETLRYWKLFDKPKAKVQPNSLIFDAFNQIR

Chains of the proteins cited; added tags and fusions are not shown. Residues count along the entry.
UniProt P34244, residues 667-872: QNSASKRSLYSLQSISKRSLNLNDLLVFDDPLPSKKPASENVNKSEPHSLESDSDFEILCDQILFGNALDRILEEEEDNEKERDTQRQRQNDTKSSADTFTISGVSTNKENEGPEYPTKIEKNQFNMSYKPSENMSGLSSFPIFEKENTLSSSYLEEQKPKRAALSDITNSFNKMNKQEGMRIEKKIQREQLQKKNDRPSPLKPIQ

T2: 6xHis-Cdh1 (S. cerevisiae) (UniProt P53197)
T2 sequence: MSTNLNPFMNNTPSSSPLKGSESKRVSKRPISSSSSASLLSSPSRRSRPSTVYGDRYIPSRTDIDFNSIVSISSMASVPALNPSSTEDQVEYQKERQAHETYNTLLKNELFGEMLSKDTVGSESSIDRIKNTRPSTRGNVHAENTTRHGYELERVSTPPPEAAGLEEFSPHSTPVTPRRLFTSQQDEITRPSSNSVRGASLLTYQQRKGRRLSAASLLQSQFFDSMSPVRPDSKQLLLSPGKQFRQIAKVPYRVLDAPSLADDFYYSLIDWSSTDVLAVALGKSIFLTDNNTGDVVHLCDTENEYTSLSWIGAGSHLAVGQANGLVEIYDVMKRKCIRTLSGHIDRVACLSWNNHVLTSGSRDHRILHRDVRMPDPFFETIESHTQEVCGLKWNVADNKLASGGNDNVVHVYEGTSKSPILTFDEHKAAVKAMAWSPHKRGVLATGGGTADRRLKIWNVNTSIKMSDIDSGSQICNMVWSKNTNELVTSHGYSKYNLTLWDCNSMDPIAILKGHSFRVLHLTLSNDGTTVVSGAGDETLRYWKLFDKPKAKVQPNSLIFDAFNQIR


How the values were obtained:
[1] = target: T1, Cdh1-ΔN200 (S. cerevisiae); assay: two-hybrid; pJ69-4a strains with bait plasmids mated with pJ69-4α strains with activation domain plasmids; diploids struck onto plates lacking leucine, tryptophan, histidine and adenine; growth indicates interaction
[2] = target: T2, 6xHis-Cdh1 (S. cerevisiae); assay: pull-down; 6xHis-Cdh1 on Talon beads or control beads incubated with yeast cell extracts holding TAP-tagged proteins; bound proteins detected with PAP antibodies; only the target purified
[3] = target: T1, Cdh1-ΔN200 (S. cerevisiae); assay: two-hybrid; data not shown; D-box mutants of Ybr138C with Cdh1

| Molecule | binding [2] | also measured |
| --- | --- | --- |
| Hsl1 667-872 (from UniProt P34244 667-872) (domain or fragment) | – | binding [1]: binds |
| Mps1-TAP (enzyme, UniProt P54199 1-764) MSTNSFHDYVDLKSRTNTRQFSDDEEFTTPPKLSNFGSALLSHTEKTSASEILSSHNNDKIANRLEEMDRSSSRSHPPPSMGNLTSGHTSTSSHSTLFGRYLRNNHQTSMTTMNTSDIEINVGNSLDKSFERIRNLRQNMKEDITAKYAERRSKRFLISNRTTKLGPAKRAMTLTNIFDEDVPNSPNQPINARETVELPLEDSHQTNFKETKRNTDYDSIDFGDLNPIQYIKKHNLPTSDLPLISQIYFDKQREENRQAALRKHSSRELLYKSRSSSSSLSSNNLLANKDNSITSNNGSQPRRKVSTGSSSSKSSIEIRRALKENIDTSNNSNFNSPIHKIYKGISRNKDSDSEKREVLRNISINANHADNLLQQENKRLKRSLDDAITNENINSKNLEVFYHRPAPKPPVTKKVEIVEPAKSASLSNNRNIITVNDSQYEKIELLGRGGSSRVYKVKGSGNRVYALKRVSFDAFDDSSIDGFKGEIELLEKLKDQKRVIQLLDYEMGDGLLYLIMECGDHDLSQILNQRSGMPLDFNFVRFYTKEMLLCIKVVHDAGIVHSDLKPANFVLVKGILKIIDFGIANAVPEHTVNIYRETQIGTPNYMAPEALVAMNYTQNSENQHEGNKWKVGRPSDMWSCGCIIYQMIYGKPPYGSFQGQNRLLAIMNPDVKIPFPEHTSNNEKIPKSAIELMKACLYRNPDKRWTVDKVLSSTFLQPFMISGSIMEDLIRNAVRYGSEKPHISQDDLNDVVDTVLRKFADYKI | binds | – |
| Ybr138C-TAP (protein, UniProt P38277 1-524) MEKDQIQPRVLESVDTNSLSLLSSNTSSNMNSNTNNKLSIIASDISTGSVLSRPLTPPVVQDIENNSMLQWQFEKKEFIFDSNSTPSKQAKPLQRNSPYQGNSQSENQNQQLLNVRKRRSQLIGAKPKIPSKLYQSVSKLDLIDDKSFTSLPIAPPCNIETNEDDSGNNEYNNNKKRPRLNPVNELRVHNNKRNRYVSYGPSLDTKNYELTENTSQDIPPLVLVEDYIPYTQSKSTKKMVSISDLKSKLSKRRDNHIPLRVKNSYSEINKETNRNSFEPNSLTLIPHILRNTEENRDESNNPLDFIKEEIEISDISIPNSIENMVVNLVNIPSSNKSYDDLYLSELNVHSQLRKCVICEKALYEISSRLLNSGYYKEIVCEQCTVRYEEAAKIFENCEFESSMDESNLSSGTFSDLENSAEPFHLSTDVPKKINRHIEDNKIDLKKEISKKKDSFSKELIERLQLQLLENDKSIKHHFNKDAMGSKSMNWFLEARRKLKWKWRINGLLPHFLRNQNSDRLNFQP | binds | – |
| Ybr138C with the putative D-box 177RPRL mutated (protein, UniProt P38277 1-524) MEKDQIQPRVLESVDTNSLSLLSSNTSSNMNSNTNNKLSIIASDISTGSVLSRPLTPPVVQDIENNSMLQWQFEKKEFIFDSNSTPSKQAKPLQRNSPYQGNSQSENQNQQLLNVRKRRSQLIGAKPKIPSKLYQSVSKLDLIDDKSFTSLPIAPPCNIETNEDDSGNNEYNNNKKAPRANPVNELRVHNNKRNRYVSYGPSLDTKNYELTENTSQDIPPLVLVEDYIPYTQSKSTKKMVSISDLKSKLSKRRDNHIPLRVKNSYSEINKETNRNSFEPNSLTLIPHILRNTEENRDESNNPLDFIKEEIEISDISIPNSIENMVVNLVNIPSSNKSYDDLYLSELNVHSQLRKCVICEKALYEISSRLLNSGYYKEIVCEQCTVRYEEAAKIFENCEFESSMDESNLSSGTFSDLENSAEPFHLSTDVPKKINRHIEDNKIDLKKEISKKKDSFSKELIERLQLQLLENDKSIKHHFNKDAMGSKSMNWFLEARRKLKWKWRINGLLPHFLRNQNSDRLNFQP | – | binding [3]: binds |

— article PMC3458821
